These are yes or no findings as the source states them, for the method shown. Some results given as binding are weak or reduced against the parent protein; the word gives no strength.
Legend:
[1] = biological target: T1, complement component C1s (Homo sapiens) (UniProt P09871); assay: Biacore SPR potency assay, C1s immobilized on the sensor chip, stored antibody samples diluted 1000-fold; read as % activity remaining
T1 sequence: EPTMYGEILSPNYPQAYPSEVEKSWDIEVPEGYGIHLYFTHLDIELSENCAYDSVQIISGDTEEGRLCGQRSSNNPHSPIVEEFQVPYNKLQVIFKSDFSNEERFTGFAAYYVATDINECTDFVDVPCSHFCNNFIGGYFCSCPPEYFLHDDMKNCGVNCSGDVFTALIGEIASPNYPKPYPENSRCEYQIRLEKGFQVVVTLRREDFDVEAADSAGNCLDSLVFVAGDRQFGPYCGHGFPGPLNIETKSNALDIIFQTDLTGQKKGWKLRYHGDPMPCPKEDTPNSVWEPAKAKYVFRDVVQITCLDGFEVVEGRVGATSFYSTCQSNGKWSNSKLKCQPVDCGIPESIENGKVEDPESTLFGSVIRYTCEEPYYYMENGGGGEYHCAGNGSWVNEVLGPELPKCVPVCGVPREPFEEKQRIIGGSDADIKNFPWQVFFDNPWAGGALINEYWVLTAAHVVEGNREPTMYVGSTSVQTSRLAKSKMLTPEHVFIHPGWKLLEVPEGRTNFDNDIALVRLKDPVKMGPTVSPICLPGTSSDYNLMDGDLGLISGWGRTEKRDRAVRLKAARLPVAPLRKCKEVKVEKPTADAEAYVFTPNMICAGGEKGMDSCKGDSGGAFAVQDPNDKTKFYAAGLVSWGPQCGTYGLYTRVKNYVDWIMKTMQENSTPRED

[2] = biological target: T1, complement component C1s (Homo sapiens); assay: Biacore SPR, C1s immobilized on the chip, stored samples of formulated antibody (histidine buffer pH 6.4, 6.8, 7.1; V = vial, P = PFS), activity relative to the unstressed sample
[3] = biological target: T1, complement component C1s (Homo sapiens); assay: Biacore SPR, C1s immobilised on the chip, stored antibody formulation diluted 1000-fold, activity relative to a calibration curve of the original sample
[4] = biological target: T1, complement component C1s (Homo sapiens); assay: Biacore SPR potency, C1s immobilized; Batch 1 chelator study
[5] = biological target: T1, complement component C1s (Homo sapiens); assay: Biacore SPR potency assay, C1s immobilized on the chip, samples diluted 1000-fold; Batch 1 chelator study
[6] = biological target: T1, complement component C1s (Homo sapiens); assay: Biacore SPR, C1s immobilized on the chip; forced isomerization study
[7] = biological target: T1, complement component C1s (Homo sapiens); assay: Biacore SPR potency, C1s immobilized; Batch 4 chelator study
[8] = biological target: T1, complement component C1s (Homo sapiens); assay: Biacore SPR potency, C1s immobilized; Batch 3 chelator study
[9] = biological target: T1, complement component C1s (Homo sapiens); assay: Biacore SPR potency, C1s immobilized; Batch 2 formulation study
[10] = biological target: T1, complement component C1s (Homo sapiens); assay: Biacore SPR, C1s immobilized directly on the sensor chip; forced isomerization samples of SAR445088 (LC D32)
[11] = biological target: T1, complement component C1s (Homo sapiens); assay: Biacore SPR potency, C1s immobilized; Batch 4 formulation study
[12] = biological target: T1, complement component C1s (Homo sapiens); assay: Biacore SPR potency assay, C1s immobilized on the chip, samples diluted 1000-fold; Batch 3 chelator study
[13] = biological target: T1, complement component C1s (Homo sapiens); assay: Biacore SPR potency, C1s immobilized; Batch 1 formulation study
[14] = biological target: T1, complement component C1s (Homo sapiens); assay: Biacore SPR potency assay, C1s immobilized on the chip, samples diluted 1000-fold; Batch 2 chelator study
[15] = biological target: T1, complement component C1s (Homo sapiens); assay: Biacore SPR potency assay, C1s immobilized on the chip, samples diluted 1000-fold; Batch 4 chelator study
[16] = biological target: T1, complement component C1s (Homo sapiens); assay: Biacore SPR potency, C1s immobilized; Batch 2 chelator study
[17] = biological target: T1, complement component C1s (Homo sapiens); assay: Biacore SPR, C1s immobilized on the chip, stored samples of formulated antibody (histidine buffer pH 6.8; V = vial, P = PFS), activity relative to the unstressed sample
[18] = biological target: T1, complement component C1s (Homo sapiens); assay: Biacore SPR potency, C1s immobilized; Batch 3 formulation study

binding [1]: binds
binding [2]: binds
binding [3]: binds
binding [4]: binds
binding [5]: binds
binding [6]: binds
binding [7]: binds
binding [8]: binds
binding [9]: binds
binding [10]: binds
binding [11]: binds
binding [12]: binds
binding [13]: binds
binding [14]: binds
binding [15]: binds
binding [16]: binds
binding [17]: binds
binding [18]: binds
B1: SAR445088 (antibody, human IgG4 S228P, kappa, V domains shown)
VH: QVQLVQSGAEVKKPGASVKLSCTASGFNIKDDYIHWVKQAPGQGLEWIGRIDPADGHTKYAPKFQVKVTITADTSTSTAYLELSSLRSEDTAVYYCARYGYGREVFDYWGQGTTVTVSS
VL: DIVLTQSPDSLAVSLGERATISCKASQSVDYDGDSYMNWYQQKPGQPPKILIYDASNLESGIPARFSGSGSGTDFTLTISSLEPEDFAIYYCQQSNEDPWTFGGGTKVEIKR
